These are yes or no findings as the source states them, for the method shown. Binding can be weak; no strength is given.

The source of these data is article PMC7362662.

For the test, the target named is ZjbZIP28 (Ziziphus jujuba (Chinese jujube)). The test can be described thus: two-hybrid; yeast two-hybrid (Y2H) by the method of ref. 56; bait and prey not told.

Take ZjbZIP27 (from UniProt A0A6P4AVP0): the binding result is listed as “binds”.
As to ZjbZIP29 (from UniProt A0A6P3YWS0), the binding entry is “binds”.
